Literature values, collected in patent US10314804B2, “Composition containing norbixin for protecting cells of the retinal pigment epithelium” (BIOPHYTIS, priority 2015, dated 2019).
At least one structure is not confirmed: it was looked up by name or label, or the drawing left a doubt.

System: primary cultures of adult pig RPE
Details: 10 μM and 20 μM; cited from earlier work

In the case of `Oc1cc(O)c2cc(O)c(-c3ccc(O)c(O)c3)[o+]c2c1` [cyanidin], the “photoprotective effect on RPE cells in earlier tests (FR 11 54172)” value is given as “advantageous photoprotective effect”.
